Measurements published in patent US20260193293A1, “PEPTIDES CAPABLE OF INHIBITING PROTEIN-PROTEIN INTERACTIONS AT GABAB1A SUBUNIT AND USES THEREOF” (UNIVERSITY OF COPENHAGEN, priority 2022, published 2026).
Results are given in words; binding and its absence hold for the method and conditions named. In cells and extracts the contact can be indirect. Some entries that bind do so weakly or less than the wild type.

Protein sequences, listed by entry. Tags and fused reporters are not part of them. Residues count along the entry.
UniProt Q9WV18, residues 20-960: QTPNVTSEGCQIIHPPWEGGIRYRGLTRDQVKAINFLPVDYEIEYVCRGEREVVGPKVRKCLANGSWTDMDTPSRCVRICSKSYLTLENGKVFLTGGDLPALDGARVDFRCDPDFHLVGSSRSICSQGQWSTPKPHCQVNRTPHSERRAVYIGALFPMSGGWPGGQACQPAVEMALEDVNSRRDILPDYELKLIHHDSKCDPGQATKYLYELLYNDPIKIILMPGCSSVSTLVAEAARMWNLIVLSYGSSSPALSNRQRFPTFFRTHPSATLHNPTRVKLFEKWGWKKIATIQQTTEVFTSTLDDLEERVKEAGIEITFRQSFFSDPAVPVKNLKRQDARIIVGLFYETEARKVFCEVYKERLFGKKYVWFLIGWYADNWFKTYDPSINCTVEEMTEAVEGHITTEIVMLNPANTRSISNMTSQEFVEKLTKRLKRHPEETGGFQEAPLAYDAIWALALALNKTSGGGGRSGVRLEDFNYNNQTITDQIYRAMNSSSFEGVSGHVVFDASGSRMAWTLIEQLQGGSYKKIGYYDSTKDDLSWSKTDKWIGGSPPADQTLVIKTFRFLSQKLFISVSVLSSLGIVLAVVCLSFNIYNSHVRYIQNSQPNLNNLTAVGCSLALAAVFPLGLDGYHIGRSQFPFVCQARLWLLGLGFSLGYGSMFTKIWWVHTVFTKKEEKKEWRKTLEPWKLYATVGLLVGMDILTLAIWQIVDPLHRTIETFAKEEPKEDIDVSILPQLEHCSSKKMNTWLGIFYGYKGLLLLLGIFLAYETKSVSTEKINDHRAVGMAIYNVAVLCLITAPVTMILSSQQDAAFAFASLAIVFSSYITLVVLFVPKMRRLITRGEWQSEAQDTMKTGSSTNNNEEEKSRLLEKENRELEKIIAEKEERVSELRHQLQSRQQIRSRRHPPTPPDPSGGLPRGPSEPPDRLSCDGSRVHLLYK

Tests used:
[1] = target: native full-length GB1a subunit from mouse brain membrane fraction (mouse) (UniProt Q9WV18); experiment: pull-down from membrane fraction of wild type mouse brains, immunoblot
[2] = target: native full-length GB1a subunit from mouse brain membrane fraction (mouse) (UniProt Q9WV18); experiment: pull-down from mouse brain lysate, immunoblot

B1: AJAP-1WT comprising a C-terminal Cys and a PEG2 linker, immobilized on Dynabeads M-270 Epoxy beads (peptide)
peptide: ETEFIAWGPTGDEDC
modifications: PEG2 linker and C-terminal Cys; covalently loaded on Dynabeads M-270 Epoxy beads
- binding [1]: binds
- binding [2]: binds
